Results reported in patent US9624200B2, “Therapeutic piperazines” (DART NEUROSCIENCE (CAYMAN) LTD., priority 2006, dated 2017).
At least one compound was matched to its structure with a doubt left.

tested on: PDE4 from human U-937 cells; test: PDE4 Inhibition Assay; type: biochemical; conditions: 1 μM cAMP, [3H]-cAMP, read-out: Potency Class (Inhibitory Concentration) in the PDE4 assay
Experimental: PDE4 from human U-937 cells was used (see T. J. Torphy, et al., J. Pharmacol. Exp. Ther., 1992, 263, 1195-1205). Test compound at various concentration and/or vehicle was preincubated with 2 μg/ml enzyme in Tris-HCl buffer pH 7.5 for 15 minutes at 25° C. The reaction was initiated by addition of 1 1 μM cAMP and 0.01 1 μM [^3H]-cAMP for another 20 minute incubation period and terminated at 100° C. The resulting [^3H]-AMP was converted to [^3H]-adenosine by addition of snake venom nucleotidase and separated by AG1-X2 resin. An aliquot was removed and counted to determine the amount of [^3H]-adenosine formed. Results were converted to percent inhibition and IC so determined using XLfit from IDBS (ID Business Solutions Ltd., 2 Occam Court, Surrey Research Park, Guildford, Surrey, GU2 7QB UK).
Representative compounds of the present invention were tested and found to have significant PDE4 inhibition in this assay.

Compared with `COc1ccc(N2CCN(C(=O)Cc3nn[nH]n3)[C@@H](Cc3ccccc3)C2)cc1OC(C)C` [Compound 333, (S)-1-(2-benzyl-4-(3-isopropoxy-4-methoxyphenyl)piperazin-1-yl)-2-(2H-tetrazol-5-yl)ethanone], `COc1ccc(N2CCN(C(=O)Cc3nc(C)n[nH]3)[C@@H](Cc3ccccc3)C2)cc1OC1CCC1` [Compound 331, (S)-1-(2-benzyl-4-(3-cyclobutoxy-4-methoxyphenyl)piperazin-1-yl)-2-(3-methyl-1H-1,2,4-triazol-5-yl)ethanone] is lower in IC50: 200 to 1000 nM for the first, < 200 nM for the second. The second is the more potent here.

First: COc1ccc(N2CCN(CCC(N)=O)[C@@H](Cc3ccccc3)C2)cc1OC1CCC1 [Compound 270, (S)-3-(2-benzyl-4-(3-cyclobutoxy-4-methoxyphenyl)piperazin-1-yl)propanamide]
Second: COc1ccc(N2CCN(C(=O)Cc3sc(C)nc3C)[C@@H](Cc3ccccc3)C2)cc1OC1CCC1 [Compound 316, (S)-1-(2-benzyl-4-(3-cyclobutoxy-4-methoxyphenyl)piperazin-1-yl)-2-(2,4-dimethylthiazol-5-yl)ethanone]
The IC50 of the first is lower: < 200 nM for the first, 200 to 1000 nM for the second. The first is the more potent here.

With `COc1ccc(N2CCN(C(=O)C3(CO)CCC3)[C@@H](Cc3ccccc3)C2)cc1OC1CCCC1` [Compound 312, (S)-(2-benzyl-4-(3-(cyclopentyloxy)-4-methoxyphenyl)piperazin-1-yl)(1-(hydroxymethyl)cyclobutyl)methanone] the IC50 was > 1000 nM.
